These results are taken from the supplement of paper PMC12819154, “High-throughput peptide-centric local stability assay extends protein–ligand identification to membrane proteins, tissues and bacteria” (Nature Structural & Molecular Biology, 2025).

The chains behind the UniProt entries cited, without tags or fusion partners. Where a name states a change or a piece, a line headed by the entry shows the natural chain unless it says otherwise.
UniProt P27111: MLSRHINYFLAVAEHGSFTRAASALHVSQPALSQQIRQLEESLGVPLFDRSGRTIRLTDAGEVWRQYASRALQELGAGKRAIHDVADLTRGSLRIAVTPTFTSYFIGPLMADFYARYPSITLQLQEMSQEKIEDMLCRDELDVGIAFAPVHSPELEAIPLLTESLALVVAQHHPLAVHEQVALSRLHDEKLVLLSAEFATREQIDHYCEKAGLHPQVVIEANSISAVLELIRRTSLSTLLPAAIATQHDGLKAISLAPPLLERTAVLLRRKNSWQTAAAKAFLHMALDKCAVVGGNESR
UniProt P23886: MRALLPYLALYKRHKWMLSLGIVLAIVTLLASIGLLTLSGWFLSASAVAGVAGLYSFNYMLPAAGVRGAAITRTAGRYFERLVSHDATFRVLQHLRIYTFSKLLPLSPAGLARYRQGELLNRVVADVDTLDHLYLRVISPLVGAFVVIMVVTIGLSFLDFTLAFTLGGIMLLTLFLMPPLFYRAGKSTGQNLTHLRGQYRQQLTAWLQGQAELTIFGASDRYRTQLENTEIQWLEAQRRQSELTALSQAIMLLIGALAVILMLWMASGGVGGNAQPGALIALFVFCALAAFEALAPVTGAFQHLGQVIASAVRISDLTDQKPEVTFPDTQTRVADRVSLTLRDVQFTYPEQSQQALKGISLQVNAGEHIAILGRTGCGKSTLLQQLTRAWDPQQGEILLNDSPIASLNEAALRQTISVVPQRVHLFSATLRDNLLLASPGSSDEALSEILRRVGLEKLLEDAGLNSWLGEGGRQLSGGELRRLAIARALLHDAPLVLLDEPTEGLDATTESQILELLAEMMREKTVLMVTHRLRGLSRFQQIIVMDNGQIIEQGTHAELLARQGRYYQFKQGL
UniProt P25728: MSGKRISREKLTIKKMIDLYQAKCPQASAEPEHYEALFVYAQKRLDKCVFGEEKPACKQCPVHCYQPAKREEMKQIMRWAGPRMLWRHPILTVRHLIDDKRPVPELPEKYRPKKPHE
UniProt P27375: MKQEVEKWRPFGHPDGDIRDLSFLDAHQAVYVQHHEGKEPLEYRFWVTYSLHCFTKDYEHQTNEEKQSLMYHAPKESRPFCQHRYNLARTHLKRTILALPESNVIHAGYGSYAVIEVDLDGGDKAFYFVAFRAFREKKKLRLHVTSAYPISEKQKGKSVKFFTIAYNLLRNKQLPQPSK
UniProt P24554: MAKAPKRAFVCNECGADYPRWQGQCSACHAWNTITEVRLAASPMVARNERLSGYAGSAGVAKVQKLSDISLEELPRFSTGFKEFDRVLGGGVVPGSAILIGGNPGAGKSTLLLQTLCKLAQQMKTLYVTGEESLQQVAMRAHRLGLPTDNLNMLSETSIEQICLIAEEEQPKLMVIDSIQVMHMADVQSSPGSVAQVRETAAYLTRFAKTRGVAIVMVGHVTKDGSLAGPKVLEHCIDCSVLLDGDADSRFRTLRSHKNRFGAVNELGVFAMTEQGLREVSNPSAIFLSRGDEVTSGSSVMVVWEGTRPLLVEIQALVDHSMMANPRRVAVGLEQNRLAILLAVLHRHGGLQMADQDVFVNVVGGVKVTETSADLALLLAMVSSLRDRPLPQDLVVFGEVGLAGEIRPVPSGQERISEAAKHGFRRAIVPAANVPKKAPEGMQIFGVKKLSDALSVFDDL
UniProt P21362: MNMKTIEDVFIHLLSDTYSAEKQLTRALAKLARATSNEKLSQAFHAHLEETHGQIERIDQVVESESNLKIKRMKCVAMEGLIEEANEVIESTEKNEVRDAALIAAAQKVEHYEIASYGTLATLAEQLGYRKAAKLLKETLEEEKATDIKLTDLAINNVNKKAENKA
UniProt P18390: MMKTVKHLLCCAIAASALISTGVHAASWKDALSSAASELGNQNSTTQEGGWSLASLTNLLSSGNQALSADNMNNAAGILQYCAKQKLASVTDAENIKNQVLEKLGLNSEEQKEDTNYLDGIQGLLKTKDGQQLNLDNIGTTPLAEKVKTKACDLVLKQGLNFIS
UniProt P27836: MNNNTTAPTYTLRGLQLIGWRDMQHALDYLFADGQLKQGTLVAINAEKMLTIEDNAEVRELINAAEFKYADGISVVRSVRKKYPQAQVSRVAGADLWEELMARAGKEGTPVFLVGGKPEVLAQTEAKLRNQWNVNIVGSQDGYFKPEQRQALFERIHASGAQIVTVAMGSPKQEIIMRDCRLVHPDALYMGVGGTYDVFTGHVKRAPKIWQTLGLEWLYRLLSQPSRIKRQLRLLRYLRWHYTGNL
UniProt P27253: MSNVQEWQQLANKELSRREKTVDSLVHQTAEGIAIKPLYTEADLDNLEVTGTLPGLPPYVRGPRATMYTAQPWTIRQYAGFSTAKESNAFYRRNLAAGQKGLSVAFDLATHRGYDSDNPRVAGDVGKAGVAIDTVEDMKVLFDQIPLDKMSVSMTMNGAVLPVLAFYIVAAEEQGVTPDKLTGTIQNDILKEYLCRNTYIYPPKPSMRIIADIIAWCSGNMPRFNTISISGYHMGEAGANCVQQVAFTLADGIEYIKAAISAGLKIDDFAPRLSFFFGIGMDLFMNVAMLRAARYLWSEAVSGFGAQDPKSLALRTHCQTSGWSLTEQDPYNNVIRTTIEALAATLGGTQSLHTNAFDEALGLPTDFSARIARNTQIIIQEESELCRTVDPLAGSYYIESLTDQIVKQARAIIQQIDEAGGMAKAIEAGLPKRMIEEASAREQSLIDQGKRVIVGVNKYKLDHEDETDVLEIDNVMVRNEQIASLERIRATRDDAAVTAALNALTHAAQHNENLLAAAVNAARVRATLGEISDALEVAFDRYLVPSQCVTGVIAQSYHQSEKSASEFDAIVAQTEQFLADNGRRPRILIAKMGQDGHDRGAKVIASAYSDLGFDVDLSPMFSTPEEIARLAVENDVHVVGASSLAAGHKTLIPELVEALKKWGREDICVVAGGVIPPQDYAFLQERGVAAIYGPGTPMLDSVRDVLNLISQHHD
UniProt P16703: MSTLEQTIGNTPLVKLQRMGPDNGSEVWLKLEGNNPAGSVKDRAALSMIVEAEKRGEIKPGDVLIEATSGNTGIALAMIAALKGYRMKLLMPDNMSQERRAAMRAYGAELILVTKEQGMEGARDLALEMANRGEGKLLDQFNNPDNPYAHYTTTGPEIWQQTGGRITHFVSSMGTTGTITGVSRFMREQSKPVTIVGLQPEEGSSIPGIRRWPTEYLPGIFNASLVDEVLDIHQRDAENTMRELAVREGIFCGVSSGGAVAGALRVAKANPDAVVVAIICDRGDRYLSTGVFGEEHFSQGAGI
UniProt P29012: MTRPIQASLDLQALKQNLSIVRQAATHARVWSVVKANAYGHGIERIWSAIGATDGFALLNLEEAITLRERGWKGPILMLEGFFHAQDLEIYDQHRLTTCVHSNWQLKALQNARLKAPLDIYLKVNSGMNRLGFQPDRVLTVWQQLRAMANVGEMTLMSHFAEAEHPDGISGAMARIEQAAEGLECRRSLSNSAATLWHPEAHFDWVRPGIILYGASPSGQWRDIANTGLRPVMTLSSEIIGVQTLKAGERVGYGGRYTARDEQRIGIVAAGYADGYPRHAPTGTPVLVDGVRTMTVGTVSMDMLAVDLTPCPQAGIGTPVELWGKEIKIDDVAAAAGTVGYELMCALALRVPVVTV
UniProt P27302: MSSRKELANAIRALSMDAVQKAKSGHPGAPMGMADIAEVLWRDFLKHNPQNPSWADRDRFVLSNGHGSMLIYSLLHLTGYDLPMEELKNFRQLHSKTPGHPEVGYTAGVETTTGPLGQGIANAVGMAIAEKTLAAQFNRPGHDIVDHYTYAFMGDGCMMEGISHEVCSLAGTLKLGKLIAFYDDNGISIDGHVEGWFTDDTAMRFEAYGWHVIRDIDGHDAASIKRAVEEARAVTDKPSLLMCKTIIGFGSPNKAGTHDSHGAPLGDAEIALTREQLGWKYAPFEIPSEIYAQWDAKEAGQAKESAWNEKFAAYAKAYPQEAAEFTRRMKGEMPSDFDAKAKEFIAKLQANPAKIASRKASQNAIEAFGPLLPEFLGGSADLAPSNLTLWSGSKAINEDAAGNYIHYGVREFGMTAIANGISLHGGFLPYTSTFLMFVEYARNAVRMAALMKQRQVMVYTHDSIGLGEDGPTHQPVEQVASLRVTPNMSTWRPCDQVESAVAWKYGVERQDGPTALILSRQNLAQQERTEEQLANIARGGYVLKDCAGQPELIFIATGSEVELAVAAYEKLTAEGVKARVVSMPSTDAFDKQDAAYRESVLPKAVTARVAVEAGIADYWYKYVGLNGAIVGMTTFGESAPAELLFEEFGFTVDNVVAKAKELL
UniProt P24252: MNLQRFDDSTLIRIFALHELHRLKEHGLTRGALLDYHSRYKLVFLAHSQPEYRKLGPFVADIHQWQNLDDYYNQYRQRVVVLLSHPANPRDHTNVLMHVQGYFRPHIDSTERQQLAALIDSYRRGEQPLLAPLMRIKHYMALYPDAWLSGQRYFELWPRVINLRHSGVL
UniProt P28249: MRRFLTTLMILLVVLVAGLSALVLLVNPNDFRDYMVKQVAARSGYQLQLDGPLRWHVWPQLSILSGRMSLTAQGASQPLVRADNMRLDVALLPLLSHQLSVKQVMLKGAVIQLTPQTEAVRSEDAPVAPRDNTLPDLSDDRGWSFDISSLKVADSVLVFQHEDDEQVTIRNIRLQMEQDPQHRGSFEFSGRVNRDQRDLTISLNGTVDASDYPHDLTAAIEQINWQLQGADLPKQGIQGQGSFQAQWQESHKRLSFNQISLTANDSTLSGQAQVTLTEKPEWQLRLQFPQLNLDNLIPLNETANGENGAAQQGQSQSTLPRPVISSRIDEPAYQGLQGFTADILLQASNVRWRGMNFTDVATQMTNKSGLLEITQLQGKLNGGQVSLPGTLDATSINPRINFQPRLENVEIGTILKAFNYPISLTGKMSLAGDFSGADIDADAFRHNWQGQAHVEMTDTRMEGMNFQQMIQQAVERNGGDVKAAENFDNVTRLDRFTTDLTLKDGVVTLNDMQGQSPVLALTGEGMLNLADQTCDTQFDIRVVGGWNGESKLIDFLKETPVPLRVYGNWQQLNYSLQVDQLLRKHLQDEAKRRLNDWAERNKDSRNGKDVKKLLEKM
UniProt P25549: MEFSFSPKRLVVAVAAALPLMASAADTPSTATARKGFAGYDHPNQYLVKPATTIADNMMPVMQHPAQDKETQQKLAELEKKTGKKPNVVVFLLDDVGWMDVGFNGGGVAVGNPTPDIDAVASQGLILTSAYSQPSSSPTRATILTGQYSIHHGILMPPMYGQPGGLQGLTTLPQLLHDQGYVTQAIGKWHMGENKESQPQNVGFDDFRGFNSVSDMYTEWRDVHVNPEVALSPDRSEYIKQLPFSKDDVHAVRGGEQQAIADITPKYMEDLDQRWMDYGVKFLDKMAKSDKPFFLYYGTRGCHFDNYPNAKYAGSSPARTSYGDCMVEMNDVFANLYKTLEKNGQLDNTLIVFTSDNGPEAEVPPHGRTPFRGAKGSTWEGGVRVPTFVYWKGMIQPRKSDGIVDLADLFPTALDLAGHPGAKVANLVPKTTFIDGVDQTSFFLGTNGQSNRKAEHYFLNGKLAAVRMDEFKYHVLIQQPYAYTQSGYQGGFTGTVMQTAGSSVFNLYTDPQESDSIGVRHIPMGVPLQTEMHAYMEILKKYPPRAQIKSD
UniProt P16433: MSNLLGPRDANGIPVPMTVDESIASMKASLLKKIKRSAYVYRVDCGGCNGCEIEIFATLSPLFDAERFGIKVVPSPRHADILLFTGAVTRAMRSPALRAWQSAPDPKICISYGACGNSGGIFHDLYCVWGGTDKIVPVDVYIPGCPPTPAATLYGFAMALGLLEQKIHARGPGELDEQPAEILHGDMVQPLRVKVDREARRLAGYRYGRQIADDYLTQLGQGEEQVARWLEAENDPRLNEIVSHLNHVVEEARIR
UniProt P30852: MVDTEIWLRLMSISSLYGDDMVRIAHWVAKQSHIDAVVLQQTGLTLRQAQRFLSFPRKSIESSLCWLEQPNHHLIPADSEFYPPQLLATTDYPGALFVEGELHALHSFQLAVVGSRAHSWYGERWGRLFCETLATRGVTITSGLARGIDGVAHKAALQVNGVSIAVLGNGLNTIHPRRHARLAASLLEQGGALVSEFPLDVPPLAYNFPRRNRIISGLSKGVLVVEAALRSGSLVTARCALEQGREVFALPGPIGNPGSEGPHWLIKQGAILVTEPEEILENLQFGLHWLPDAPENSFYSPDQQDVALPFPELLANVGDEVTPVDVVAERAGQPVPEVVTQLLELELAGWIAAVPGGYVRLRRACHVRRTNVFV
UniProt P17802: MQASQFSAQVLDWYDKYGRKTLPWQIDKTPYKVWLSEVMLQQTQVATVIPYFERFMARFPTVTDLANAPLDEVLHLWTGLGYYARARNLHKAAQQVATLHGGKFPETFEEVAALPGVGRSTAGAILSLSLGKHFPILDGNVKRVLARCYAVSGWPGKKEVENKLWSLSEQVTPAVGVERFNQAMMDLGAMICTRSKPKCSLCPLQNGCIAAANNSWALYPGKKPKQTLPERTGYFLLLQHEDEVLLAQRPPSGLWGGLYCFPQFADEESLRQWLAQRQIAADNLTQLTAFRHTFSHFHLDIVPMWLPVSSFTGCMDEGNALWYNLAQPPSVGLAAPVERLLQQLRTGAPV

The list shows a part of the results, in another mix than the full data. Most entries show no effect beyond the scatter of the controls.
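Note: lysate desalted by size exclusion to strip endogenous ATP, peptide intensities built from DIA-NN precursor signals, and peptides missing any value discarded before comparison.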

Compound in the experiment: Nc1ncnc2c1ncn2[C@@H]1O[C@H](COP(=O)(O)OP(=O)(O)OP(=O)(O)O)[C@@H](O)[C@H]1O [adenosine 5'-triphosphate]
The experiment can be described thus: log2 fold change of tryptic peptide abundance, ligand vs vehicle (limited proteolysis) (log2 ratio); higher = more trypsin-susceptible (destabilized). Particulars: ligand concentration: 5 mM; sample: E. coli desalted lysate; replicate design: treated before aliquoting. As to the method: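 HT-PELSA: desalted E. coli K-12 BW25113 lysate (with 12 mM MgCl2) incubated with 5 mM ATP (pH 7) or water for 30 min at 25 C, then a 4 min trypsin pulse at 22 C. Peptides were quantified by DIA-MS (4 replicates). Value is the peptide log2 fold change (treated/control); negative = stabilized. Scale: negative = ligand-stabilized region.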
As to “UniProt P27896 (peptide sequence: HILQIVR, peptide start residue: 269)”, the log2 fold change is -0.573. The figure for “UniProt P27111 (peptide sequence: CAVVGGNESR, peptide start residue: 290)” is 1.07; for “UniProt P23886 (peptide sequence: YYQFKQGL, peptide start residue: 566)” it is 0.648. “UniProt P25728 (peptide sequence: HLIDDKRPVPELPEK, peptide start residue: 95)”: the log2 fold change is -0.202.

“UniProt P27375 (peptide sequence: LHVTSAYPISEK, peptide start residue: 142)”: the log2 fold change is 0.338. Turning to “UniProt P30859 (peptide sequence: YTSVDQLK, peptide start residue: 118)”, the log2 fold change was -0.294. As to “UniProt P24554 (peptide sequence: TRGVAIVMVGHVTK, peptide start residue: 210)”, the log2 fold change is 0.515.

As to “UniProt P19934 (peptide sequence: KQAEEAAKQAELK, peptide start residue: 118)”, the log2 fold change was -1.31. The figure for “UniProt P24228 (peptide sequence: FTLTGCLPQR, peptide start residue: 229)” is -0.259; for “UniProt P21362 (peptide sequence: ETLEEEK, peptide start residue: 138)” it is 0.45; for “UniProt P18390 (peptide sequence: LASVTDAENIK, peptide start residue: 87)” it is -0.307. The figure for “UniProt P27836 (peptide sequence: KKYPQAQVSR, peptide start residue: 81)” is 0.46.

For “UniProt P25737 (peptide sequence: TTEAPGLRR, peptide start residue: 7)”, the log2 fold change came to 0.107. Consider “UniProt P27253 (peptide sequence: NEQIASLER, peptide start residue: 479)”, for which the log2 fold change was -0.123. Turning to “UniProt P30140 (peptide sequence: LRPCTGGIEPASIMDER, peptide start residue: 262)”, the log2 fold change is -0.443. As for “UniProt P22524 (peptide sequence: STGSDVDRQKLQEK, peptide start residue: 141)”, the log2 fold change was -0.316. “UniProt P16703 (peptide sequence: AYGAELILVTK, peptide start residue: 105)”: the log2 fold change stood at 0.665. Then “UniProt P21829 (peptide sequence: VIALDLDGTLLTPKK, peptide start residue: 5)”, with 0.343; and “UniProt P23721 (peptide sequence: YGVIYAGAQK, peptide start residue: 189)”, with -0.412. With “UniProt P29012 (peptide sequence: LTTCVHSNWQLK, peptide start residue: 96)”, the log2 fold change is -0.326. In the case of “UniProt P27302 (peptide sequence: LTAEGVKAR, peptide start residue: 571)”, the log2 fold change was -0.538. The figure for “UniProt P30847 (peptide sequence: GELEAIQDGVR, peptide start residue: 261)” is 0.432; for “UniProt P24252 (peptide sequence: VVVLLSHPANPR, peptide start residue: 79)” it is 0.531; for “UniProt P25798 (peptide sequence: FSEASGAIEVPADKVHELR, peptide start residue: 76)” it is 0.596. In the case of “UniProt P28249 (peptide sequence: AAENFDNVTR, peptide start residue: 483)”, the log2 fold change turned out to be 1.03. For the target “UniProt P25549 (peptide sequence: SDKPFFLYYGTR, peptide start residue: 289)”, the log2 fold change is 0.23. For “UniProt P25718 (peptide sequence: HKDGMAEIGTFHGGDLR, peptide start residue: 213)”, the log2 fold change was -0.775. “UniProt P16681 (peptide sequence: ISFGEMPK, peptide start residue: 32)”: the log2 fold change was -0.417. Then “UniProt P16433 (peptide sequence: LNEIVSHLNHVVEEAR, peptide start residue: 238)”, with -0.71; and “UniProt P18811 (peptide sequence: VNAAIEELGFVR, peptide start residue: 41)”, with -0.293.

Consider “UniProt P21517 (peptide sequence: EAEQDHVYYHHAAGQEIILR, peptide start residue: 140)”, for which the log2 fold change came out at 0.512.

In the case of “UniProt P26648 (peptide sequence: ASVWGINGR, peptide start residue: 65)”, the log2 fold change is -0.107. With “UniProt P23917 (peptide sequence: LYQTVGQLIK, peptide start residue: 260)”, the log2 fold change was -0.326.

In the case of “UniProt P21361 (peptide sequence: KGGQHSGGNFKNDPQR, peptide start residue: 24)”, the log2 fold change was 0.171. For “UniProt P30852 (peptide sequence: GVTITSGLAR, peptide start residue: 137)”, the log2 fold change stood at 0.608. Turning to “UniProt P16682 (peptide sequence: GLNEQDKLAK, peptide start residue: 300)”, the log2 fold change is 0.114. Then “UniProt P17802 (peptide sequence: STAGAILSLSLGK, peptide start residue: 120)”, with 0.817; and “UniProt P28306 (peptide sequence: GGHTFNTNLASHNK, peptide start residue: 312)”, with -0.681.
